{"source": "the supplement of paper PMC8728848", "binders": {"B1": {"name": "Intelectin 1 (Homo sapiens), Q8WWA0 (protein)", "chain": "MNQLSFLLFLIATTRGWSTDEANTYFKEWTCSSSPSLPRSCKEIKDECPSAFDGLYFLRTENGVIYQTFCDMTSGGGGWTLVASVHENDMRGKCTVGDRWSSQQGSKAVYPEGDGNWANYNTFGSAEAATSDDYKNPGYYDIQAKDLGIWHVPNKSPMQHWRNSSLLRYRTDTGFLQTLGHNLFGIYQKYPVKYGEGKCWTDNGPVIPVVYDFGDAQKTASYYSPYGQREFTAGFVQFRVFNNERAANALCAGMRVTGCNTEHHCIGGGGYFPEASPQQCGDFSGFDWSGYGTHVGYSSSREITEAAVLLFYR"}}, "test_in_all_cases": "glycan array binding signal (z-score within array); higher = stronger binding", "details_in_all_cases": "glycan notation: IUPAC condensed, linker removed", "key": {"[1]": {"molecular_target": "Fuc(a1-3)[Gal(b1-4)]GlcNAc(b1-2)Man(a1-3)[Fuc(a1-3)[Gal(b1-4)]GlcNAc(b1-2)Man(a1-6)]Man(b1-4)GlcNAc(b1-4)[Fuc(a1-6)]GlcNAc", "method_in_brief": "(§1)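 Negative Z-scores can be read as non-binding. The Z-score is calculated within each array and then averaged across arrays of one protein sequence at different concentrations or buffers and across linkers. Arrays, 3228 in all, were curated from the Consortium for Functional Glycomics database and kept only where the protein sequence was available.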"}, "[2]": {"molecular_target": "Fuc(a1-3)[Gal(b1-4)]GlcNAc(b1-3)Gal(b1-3)[Fuc(a1-4)]GlcNAc", "method_in_brief": "as §1"}, "[3]": {"molecular_target": "Fuc(a1-3)[Gal(b1-4)]GlcNAc(b1-3)GalNAc", "method_in_brief": "as §1"}, "[4]": {"molecular_target": "Fuc(a1-3)[Gal(b1-4)]GlcNAc(b1-4)Gal(b1-4)[Fuc(a1-3)]GlcNAc", "method_in_brief": "as §1"}, "[5]": {"molecular_target": "Fuc(a1-3)[Gal(b1-4)]GlcNAc(b1-4)Gal(b1-4)[Fuc(a1-3)]GlcNAc(b1-4)Gal(b1-4)[Fuc(a1-3)]GlcNAc", "method_in_brief": "as §1"}, "[6]": {"molecular_target": "Fuc(a1-3)[Gal(b1-4)]GlcNAc(b1-6)GalNAc", "method_in_brief": "as §1"}, "[7]": {"molecular_target": "Fuc(a1-3)[Gal(b1-4)]GlcNAc(b1-6)[Gal(b1-3)GlcNAc(b1-3)]Gal(b1-4)Glc", "method_in_brief": "as §1"}, "[8]": {"molecular_target": "Fuc(a1-3)[Gal(b1-4)]GlcNAc(b1-6)[Neu5Ac(a2-3)Gal(b1-3)]GalNAc", "method_in_brief": "as §1"}, "[9]": {"molecular_target": "Fuc(a1-3)[Gal(b1-4)]GlcNAc6S", "method_in_brief": "as §1"}, "[10]": {"molecular_target": "Fuc(a1-3)[Gal3S(b1-4)]GlcNAc", "method_in_brief": "as §1"}, "[11]": {"molecular_target": "Fuc(a1-3)[Gal3S(b1-4)]GlcNAc6S", "method_in_brief": "as §1"}, "[12]": {"molecular_target": "Fuc(a1-3)[GalNAc(b1-4)]GlcNAc", "method_in_brief": "as §1"}, "[13]": {"molecular_target": "Fuc(a1-4)GlcNAc", "method_in_brief": "as §1"}, "[14]": {"molecular_target": "Fuc(b1-3)GlcNAc", "method_in_brief": "as §1"}, "[15]": {"molecular_target": "Gal(a1-2)Gal", "method_in_brief": "as §1"}, "[16]": {"molecular_target": "Gal(a1-3)Gal", "method_in_brief": "as §1"}, "[17]": {"molecular_target": "Gal(a1-3)Gal(b1-3)GlcNAc", "method_in_brief": "as §1"}, "[18]": {"molecular_target": "Gal(a1-3)Gal(b1-3)GlcNAc(b1-2)Man(a1-3)[Gal(a1-3)Gal(b1-3)GlcNAc(b1-2)Man(a1-6)]Man(b1-4)GlcNAc(b1-4)GlcNAc", "method_in_brief": "as §1"}, "[19]": {"molecular_target": "Gal(a1-3)Gal(b1-3)GlcNAc(b1-3)GalNAc", "method_in_brief": "as §1"}, "[20]": {"molecular_target": "Gal(a1-3)Gal(b1-3)[Fuc(a1-4)]GlcNAc(b1-2)Man(a1-3)[Gal(a1-3)Gal(b1-3)[Fuc(a1-4)]GlcNAc(b1-2)Man(a1-6)]Man(b1-4)GlcNAc(b1-4)GlcNAc", "method_in_brief": "as §1"}, "[21]": {"molecular_target": "Gal(a1-3)Gal(b1-4)Glc", "method_in_brief": "as §1"}, "[22]": {"molecular_target": "Gal(a1-3)Gal(b1-4)GlcNAc", "method_in_brief": "as §1"}, "[23]": {"molecular_target": "Gal(a1-3)Gal(b1-4)GlcNAc(b1-3)GalNAc", "method_in_brief": "as §1"}, "[24]": {"molecular_target": "Gal(a1-3)Gal(b1-4)[Fuc(a1-3)]GlcNAc", "method_in_brief": "as §1"}, "[25]": {"molecular_target": "Gal(a1-3)Gal(b1-4)[Fuc(a1-3)]GlcNAc(b1-2)Man(a1-3)[Gal(a1-3)Gal(b1-4)[Fuc(a1-3)]GlcNAc(b1-2)Man(a1-6)]Man(b1-4)GlcNAc(b1-4)GlcNAc", "method_in_brief": "as §1"}, "[26]": {"molecular_target": "Gal(a1-3)GalNAc", "method_in_brief": "as §1"}, "[27]": {"molecular_target": "Gal(a1-3)[Gal(a1-4)]Gal(b1-4)GlcNAc", "method_in_brief": "as §1"}, "[28]": {"molecular_target": "Gal(a1-4)Gal(b1-3)GlcNAc(b1-2)Man(a1-3)[Gal(a1-4)Gal(b1-3)GlcNAc(b1-2)Man(a1-6)]Man(b1-4)GlcNAc(b1-4)GlcNAc", "method_in_brief": "as §1"}, "[29]": {"molecular_target": "Gal(a1-4)Gal(b1-4)Glc", "method_in_brief": "as §1"}, "[30]": {"molecular_target": "Gal(a1-4)Gal(b1-4)GlcNAc", "method_in_brief": "as §1"}, "[31]": {"molecular_target": "Gal(a1-4)Gal(b1-4)GlcNAc(b1-2)Man(a1-3)[Gal(a1-4)Gal(b1-4)GlcNAc(b1-2)Man(a1-6)]Man(b1-4)GlcNAc(b1-4)GlcNAc", "method_in_brief": "as §1"}, "[32]": {"molecular_target": "Gal(a1-4)Gal(b1-4)GlcNAc(b1-3)Gal(b1-4)Glc", "method_in_brief": "as §1"}, "[33]": {"molecular_target": "Gal(a1-4)GlcNAc", "method_in_brief": "as §1"}, "[34]": {"molecular_target": "Gal(a1-6)Glc", "method_in_brief": "as §1"}, "[35]": {"molecular_target": "Gal(b1-2)Gal", "method_in_brief": "as §1"}, "[36]": {"molecular_target": "Gal(b1-3)Gal", "method_in_brief": "as §1"}, "[37]": {"molecular_target": "Gal(b1-3)Gal(b1-4)GlcNAc", "method_in_brief": "as §1"}}, "note": "This is one part of the list."}
{"binder": "B1", "values": [{"measurement": "glycan array binding signal (z-score)", "setting": "[1]", "result": 0.394}, {"measurement": "glycan array binding signal (z-score)", "setting": "[2]", "result": 0.245}, {"measurement": "glycan array binding signal (z-score)", "setting": "[3]", "result": 0.022}, {"measurement": "glycan array binding signal (z-score)", "setting": "[4]", "result": 0.645}, {"measurement": "glycan array binding signal (z-score)", "setting": "[5]", "result": 0.26}, {"measurement": "glycan array binding signal (z-score)", "setting": "[6]", "result": -0.284}, {"measurement": "glycan array binding signal (z-score)", "setting": "[7]", "result": 0.294}, {"measurement": "glycan array binding signal (z-score)", "setting": "[8]", "result": -0.6}, {"measurement": "glycan array binding signal (z-score)", "setting": "[9]", "result": 1.08}, {"measurement": "glycan array binding signal (z-score)", "setting": "[10]", "result": -0.215}, {"measurement": "glycan array binding signal (z-score)", "setting": "[11]", "result": 0.673}, {"measurement": "glycan array binding signal (z-score)", "setting": "[12]", "result": 0.402}, {"measurement": "glycan array binding signal (z-score)", "setting": "[13]", "result": -0.919}, {"measurement": "glycan array binding signal (z-score)", "setting": "[14]", "result": 0.358}, {"measurement": "glycan array binding signal (z-score)", "setting": "[15]", "result": 0.438}, {"measurement": "glycan array binding signal (z-score)", "setting": "[16]", "result": -0.751}, {"measurement": "glycan array binding signal (z-score)", "setting": "[17]", "result": -0.17}, {"measurement": "glycan array binding signal (z-score)", "setting": "[18]", "result": 0.538}, {"measurement": "glycan array binding signal (z-score)", "setting": "[19]", "result": 1.19}, {"measurement": "glycan array binding signal (z-score)", "setting": "[20]", "result": -0.468}, {"measurement": "glycan array binding signal (z-score)", "setting": "[21]", "result": -0.288}, {"measurement": "glycan array binding signal (z-score)", "setting": "[22]", "result": 0.459}, {"measurement": "glycan array binding signal (z-score)", "setting": "[23]", "result": -0.493}, {"measurement": "glycan array binding signal (z-score)", "setting": "[24]", "result": -0.367}, {"measurement": "glycan array binding signal (z-score)", "setting": "[25]", "result": 1.02}, {"measurement": "glycan array binding signal (z-score)", "setting": "[26]", "result": -0.41}, {"measurement": "glycan array binding signal (z-score)", "setting": "[27]", "result": 0.846}, {"measurement": "glycan array binding signal (z-score)", "setting": "[28]", "result": 0.435}, {"measurement": "glycan array binding signal (z-score)", "setting": "[29]", "result": -0.733}, {"measurement": "glycan array binding signal (z-score)", "setting": "[30]", "result": -0.537}, {"measurement": "glycan array binding signal (z-score)", "setting": "[31]", "result": 0.196}, {"measurement": "glycan array binding signal (z-score)", "setting": "[32]", "result": 0.081}, {"measurement": "glycan array binding signal (z-score)", "setting": "[33]", "result": -0.253}, {"measurement": "glycan array binding signal (z-score)", "setting": "[34]", "result": -0.107}, {"measurement": "glycan array binding signal (z-score)", "setting": "[35]", "result": 0.357}, {"measurement": "glycan array binding signal (z-score)", "setting": "[36]", "result": -0.473}, {"measurement": "glycan array binding signal (z-score)", "setting": "[37]", "result": -0.676}]}
